Paper PMC6911077
No constants are given. Whether binding was seen depends on the method and setting. Binding seen in cells or lysates may run through a third protein. A yes stands for co-enrichment or nearness to the bait. Other partners may have been found. Tags and fused reporters may be left off the sequences shown.

Chains of the proteins cited; added tags and fusions are not shown.
UniProt P78527: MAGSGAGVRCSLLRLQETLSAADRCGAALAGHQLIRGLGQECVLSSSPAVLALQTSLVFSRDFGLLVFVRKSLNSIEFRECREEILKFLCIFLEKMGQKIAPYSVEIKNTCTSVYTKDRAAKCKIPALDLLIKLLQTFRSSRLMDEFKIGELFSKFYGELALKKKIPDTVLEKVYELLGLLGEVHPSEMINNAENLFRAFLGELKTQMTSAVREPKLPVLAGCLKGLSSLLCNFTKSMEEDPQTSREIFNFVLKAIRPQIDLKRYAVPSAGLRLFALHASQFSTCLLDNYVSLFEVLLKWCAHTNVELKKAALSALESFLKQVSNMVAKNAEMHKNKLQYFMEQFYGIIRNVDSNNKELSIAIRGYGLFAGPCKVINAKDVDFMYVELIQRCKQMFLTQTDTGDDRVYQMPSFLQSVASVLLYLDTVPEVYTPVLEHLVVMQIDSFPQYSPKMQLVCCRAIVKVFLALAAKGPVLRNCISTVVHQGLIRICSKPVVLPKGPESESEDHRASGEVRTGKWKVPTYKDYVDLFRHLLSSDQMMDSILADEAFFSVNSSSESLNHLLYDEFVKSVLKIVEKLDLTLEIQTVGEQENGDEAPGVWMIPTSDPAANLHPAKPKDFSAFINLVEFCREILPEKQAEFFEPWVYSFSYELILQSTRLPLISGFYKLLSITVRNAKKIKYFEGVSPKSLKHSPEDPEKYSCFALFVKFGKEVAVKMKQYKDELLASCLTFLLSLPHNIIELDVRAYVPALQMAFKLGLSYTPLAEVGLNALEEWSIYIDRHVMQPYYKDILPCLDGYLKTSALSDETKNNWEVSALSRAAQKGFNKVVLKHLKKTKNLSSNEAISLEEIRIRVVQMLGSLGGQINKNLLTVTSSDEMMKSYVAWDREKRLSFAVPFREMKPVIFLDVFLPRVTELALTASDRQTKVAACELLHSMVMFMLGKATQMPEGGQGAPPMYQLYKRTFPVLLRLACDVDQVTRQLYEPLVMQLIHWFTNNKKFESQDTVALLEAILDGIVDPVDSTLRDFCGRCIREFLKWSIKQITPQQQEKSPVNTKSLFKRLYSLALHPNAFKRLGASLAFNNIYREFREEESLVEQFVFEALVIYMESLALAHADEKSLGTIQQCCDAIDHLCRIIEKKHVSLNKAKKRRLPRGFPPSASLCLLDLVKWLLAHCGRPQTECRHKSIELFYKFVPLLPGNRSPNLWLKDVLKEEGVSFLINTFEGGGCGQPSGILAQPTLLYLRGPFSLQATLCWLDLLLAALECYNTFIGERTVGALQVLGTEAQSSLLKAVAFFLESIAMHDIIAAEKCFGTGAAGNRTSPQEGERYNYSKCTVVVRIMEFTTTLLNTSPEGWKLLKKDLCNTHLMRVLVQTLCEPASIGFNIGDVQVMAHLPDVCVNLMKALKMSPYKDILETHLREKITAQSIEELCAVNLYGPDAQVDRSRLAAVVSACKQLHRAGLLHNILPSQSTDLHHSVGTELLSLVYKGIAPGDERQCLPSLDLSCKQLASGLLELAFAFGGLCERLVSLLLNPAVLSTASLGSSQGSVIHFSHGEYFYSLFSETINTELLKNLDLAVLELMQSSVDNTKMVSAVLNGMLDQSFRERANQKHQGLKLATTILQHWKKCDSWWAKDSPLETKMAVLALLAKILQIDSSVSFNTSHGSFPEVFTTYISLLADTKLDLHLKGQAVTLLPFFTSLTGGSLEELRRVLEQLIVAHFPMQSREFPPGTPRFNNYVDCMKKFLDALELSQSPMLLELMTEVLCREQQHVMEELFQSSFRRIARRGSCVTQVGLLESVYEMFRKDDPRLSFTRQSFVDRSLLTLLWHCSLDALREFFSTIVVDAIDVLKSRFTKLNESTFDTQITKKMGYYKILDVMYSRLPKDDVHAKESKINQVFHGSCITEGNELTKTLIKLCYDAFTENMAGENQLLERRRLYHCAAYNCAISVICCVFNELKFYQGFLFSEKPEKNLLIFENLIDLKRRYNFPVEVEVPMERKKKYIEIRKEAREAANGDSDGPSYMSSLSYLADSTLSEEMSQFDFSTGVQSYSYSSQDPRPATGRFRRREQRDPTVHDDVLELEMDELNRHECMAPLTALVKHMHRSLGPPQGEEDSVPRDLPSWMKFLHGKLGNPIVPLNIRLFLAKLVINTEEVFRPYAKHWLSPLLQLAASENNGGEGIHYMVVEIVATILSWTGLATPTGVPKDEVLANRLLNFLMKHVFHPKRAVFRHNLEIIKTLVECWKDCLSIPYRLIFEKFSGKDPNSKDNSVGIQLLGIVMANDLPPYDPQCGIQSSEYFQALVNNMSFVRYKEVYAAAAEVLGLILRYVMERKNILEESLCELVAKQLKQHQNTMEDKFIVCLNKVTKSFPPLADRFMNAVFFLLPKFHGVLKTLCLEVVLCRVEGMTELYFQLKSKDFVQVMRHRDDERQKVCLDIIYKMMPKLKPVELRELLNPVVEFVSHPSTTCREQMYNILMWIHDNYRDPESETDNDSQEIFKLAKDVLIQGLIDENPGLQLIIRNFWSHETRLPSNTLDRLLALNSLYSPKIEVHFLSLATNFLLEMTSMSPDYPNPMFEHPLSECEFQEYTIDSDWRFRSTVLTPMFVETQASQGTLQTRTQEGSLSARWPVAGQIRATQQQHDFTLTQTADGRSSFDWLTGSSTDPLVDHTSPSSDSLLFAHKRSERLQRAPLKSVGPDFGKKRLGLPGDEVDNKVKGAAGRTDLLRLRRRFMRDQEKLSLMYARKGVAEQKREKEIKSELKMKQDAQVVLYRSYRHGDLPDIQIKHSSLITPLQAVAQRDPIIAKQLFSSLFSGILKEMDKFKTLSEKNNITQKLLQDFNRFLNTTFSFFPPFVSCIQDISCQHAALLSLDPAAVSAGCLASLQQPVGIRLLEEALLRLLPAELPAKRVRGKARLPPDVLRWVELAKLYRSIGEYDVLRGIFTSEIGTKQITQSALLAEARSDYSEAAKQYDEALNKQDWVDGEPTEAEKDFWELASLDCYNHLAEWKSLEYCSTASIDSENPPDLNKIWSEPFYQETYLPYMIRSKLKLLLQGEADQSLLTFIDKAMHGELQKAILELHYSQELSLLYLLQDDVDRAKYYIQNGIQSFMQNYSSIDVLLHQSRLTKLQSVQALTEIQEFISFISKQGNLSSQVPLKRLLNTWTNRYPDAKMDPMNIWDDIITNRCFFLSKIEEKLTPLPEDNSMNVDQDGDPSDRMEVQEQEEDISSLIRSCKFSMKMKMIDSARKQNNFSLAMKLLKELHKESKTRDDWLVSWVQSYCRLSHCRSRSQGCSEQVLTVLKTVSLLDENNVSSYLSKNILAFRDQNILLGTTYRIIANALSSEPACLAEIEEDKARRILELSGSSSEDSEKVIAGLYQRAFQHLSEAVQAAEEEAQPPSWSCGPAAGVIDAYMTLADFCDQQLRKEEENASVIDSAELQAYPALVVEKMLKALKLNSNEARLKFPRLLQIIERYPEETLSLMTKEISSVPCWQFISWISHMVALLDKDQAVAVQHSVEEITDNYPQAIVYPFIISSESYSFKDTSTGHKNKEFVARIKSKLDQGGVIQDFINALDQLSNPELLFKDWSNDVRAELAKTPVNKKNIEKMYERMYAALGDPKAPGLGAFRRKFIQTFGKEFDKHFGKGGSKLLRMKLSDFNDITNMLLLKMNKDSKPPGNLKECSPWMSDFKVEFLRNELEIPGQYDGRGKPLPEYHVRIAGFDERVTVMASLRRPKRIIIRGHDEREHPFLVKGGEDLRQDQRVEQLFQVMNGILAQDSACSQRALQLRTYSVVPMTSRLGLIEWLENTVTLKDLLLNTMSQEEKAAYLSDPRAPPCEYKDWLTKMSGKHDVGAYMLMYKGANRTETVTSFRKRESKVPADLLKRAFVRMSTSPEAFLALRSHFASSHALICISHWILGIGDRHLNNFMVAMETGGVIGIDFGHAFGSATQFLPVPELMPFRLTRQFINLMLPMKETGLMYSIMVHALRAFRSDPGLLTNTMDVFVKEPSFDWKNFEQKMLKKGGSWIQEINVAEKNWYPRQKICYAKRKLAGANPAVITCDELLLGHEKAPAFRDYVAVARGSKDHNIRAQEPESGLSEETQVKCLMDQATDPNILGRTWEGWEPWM
UniProt Q92878: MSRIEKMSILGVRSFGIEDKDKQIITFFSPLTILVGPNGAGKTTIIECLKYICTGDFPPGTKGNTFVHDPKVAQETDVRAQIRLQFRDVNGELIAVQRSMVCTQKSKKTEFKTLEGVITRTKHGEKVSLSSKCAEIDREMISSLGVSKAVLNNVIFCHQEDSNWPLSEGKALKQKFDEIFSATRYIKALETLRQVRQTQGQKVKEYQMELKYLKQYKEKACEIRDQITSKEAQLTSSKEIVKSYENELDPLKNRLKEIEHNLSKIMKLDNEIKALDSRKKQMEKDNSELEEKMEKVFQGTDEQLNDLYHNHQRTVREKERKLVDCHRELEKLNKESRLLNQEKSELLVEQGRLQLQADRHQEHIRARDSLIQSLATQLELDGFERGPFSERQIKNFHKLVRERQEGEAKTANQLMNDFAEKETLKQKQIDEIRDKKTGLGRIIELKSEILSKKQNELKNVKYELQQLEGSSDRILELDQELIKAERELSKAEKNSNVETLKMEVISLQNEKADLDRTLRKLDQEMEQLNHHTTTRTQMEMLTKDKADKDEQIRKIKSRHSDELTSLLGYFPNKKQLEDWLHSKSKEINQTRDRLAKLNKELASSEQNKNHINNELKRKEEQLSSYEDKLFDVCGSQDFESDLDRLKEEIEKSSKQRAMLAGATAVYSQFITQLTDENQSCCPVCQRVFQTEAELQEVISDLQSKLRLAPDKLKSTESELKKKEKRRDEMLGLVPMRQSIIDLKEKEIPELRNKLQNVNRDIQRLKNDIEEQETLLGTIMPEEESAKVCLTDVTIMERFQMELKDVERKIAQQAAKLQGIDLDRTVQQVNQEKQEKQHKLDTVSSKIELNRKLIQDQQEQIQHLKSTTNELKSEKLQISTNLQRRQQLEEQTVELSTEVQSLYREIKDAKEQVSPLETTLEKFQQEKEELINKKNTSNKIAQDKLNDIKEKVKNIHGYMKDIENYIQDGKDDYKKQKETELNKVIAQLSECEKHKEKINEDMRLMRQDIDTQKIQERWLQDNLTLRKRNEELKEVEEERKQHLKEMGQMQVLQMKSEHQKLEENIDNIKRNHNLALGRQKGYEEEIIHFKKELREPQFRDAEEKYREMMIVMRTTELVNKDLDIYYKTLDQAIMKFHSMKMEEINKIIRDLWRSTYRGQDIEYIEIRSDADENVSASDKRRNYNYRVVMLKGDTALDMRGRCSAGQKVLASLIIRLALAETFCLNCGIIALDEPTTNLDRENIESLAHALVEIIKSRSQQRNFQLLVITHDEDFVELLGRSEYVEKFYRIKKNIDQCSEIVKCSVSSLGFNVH

Target: T1, Flag-RAP1 (human) (UniProt Q9NYB0)
T1 sequence: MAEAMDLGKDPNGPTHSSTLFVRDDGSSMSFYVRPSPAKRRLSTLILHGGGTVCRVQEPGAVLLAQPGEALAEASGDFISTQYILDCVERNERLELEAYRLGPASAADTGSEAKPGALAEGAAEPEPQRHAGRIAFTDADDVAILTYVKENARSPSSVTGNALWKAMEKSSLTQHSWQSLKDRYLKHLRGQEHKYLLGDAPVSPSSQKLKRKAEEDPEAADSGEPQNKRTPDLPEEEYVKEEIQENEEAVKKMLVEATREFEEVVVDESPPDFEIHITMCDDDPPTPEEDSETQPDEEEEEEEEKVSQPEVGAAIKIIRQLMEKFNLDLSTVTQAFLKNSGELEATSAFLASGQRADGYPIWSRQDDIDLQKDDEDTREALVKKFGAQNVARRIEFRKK
Test: affinity purification with mass spectrometry; SILAC-MS using Flag-RAP1-expressing 293T cells; proteins with SILAC ratios >3 taken

binding | Substance
binds | DNA-PK (from UniProt P78527 1-4128)
binds | Rad50 (from UniProt Q92878 1-1312)
